# According to PubChem BioAssay AID1347076 (National Center for Advancing Translational Sciences (NCATS), 2019):
# In all, about 400,000 compounds went through this assay and about 13,000 (3.2%) were called active. This list was built around the results that the source calls inconclusive (neither active nor inactive); the mix of calls is not that of the screen. The call rests on the fitted dose curve; in most records, active means well fitted cell-killing curve with a large enough effect; inconclusive means small, poorly fitted or top-dose-only effect, or effect the other way; inactive means flat fitted curve, though single readings scatter. Potencies beside an inconclusive call are fits to weak or partial responses and may not hold up.
# Assay: qHTS assay for MDR1-selective chemotherapeutics: Primary screen using the drug-selected MDR subline cells KB-V1; further: nearly all actives have a fitted effect of over 60% in size
# Conditions: KB-V1 MDR cells viability, CellTiter-Glo, 72 h; activity change, negative = cytotoxicity: at 46.1 µM (top of the series)
# In short: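 Drug-selected KB-V1 cells, grown in DMEM lacking phenol red with 10% FBS, receive compound titrations; after three days at 37 degrees C, surviving cell ATP is quantified by CellTiter-Glo luminescence and responses normalized and curve-fitted.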
# On the % scale 0 is the no-effect control and ±100 the full control effect; potency means the concentration at half of the fitted maximal effect.
SMILES,Potency,"activity change, negative = cytotoxicity"
COc1ccc(C(=O)N2CCCC(Nc3ccc(C)c(C)c3)C2)cc1F (configuration not stated),"inconclusive: 29.1 µM [cytotoxic, partial curve, poor fit]",–
Cn1c(=O)oc2cc(S(=O)(=O)N3CCCC(C(=O)NC4CCCc5ccccc54)C3)ccc21 (configuration not stated),"inconclusive: 8.2 µM [cytotoxic, partial curve]",–
Cc1cccc(-n2c(=O)c3c(c4cc(C)ccc4n3C)n(CC(=O)N3CCCC3)c2=O)c1,–,inconclusive: -1.82%
Cc1nc(-c2ccccc2)nc2[nH]c(-c3ccccc3)cc(=O)c12,"inconclusive: 3.26 µM [cytotoxic, full curve]",–
O=C(CCCn1cnc([N+](=O)[O-])n1)Nc1ccc(Cl)cc1Cl,"inconclusive: 23.1 µM [cytotoxic, single point]",–
CCCc1nc2sc3ccccc3c(=O)c2c(=O)n1Cc1ccco1,"inconclusive: 5.8 µM [cytotoxic, partial curve, poor fit]",–
COc1cccc(C(=O)c2c(N)c(-c3nc(-c4ccccc4)cs3)c3ccccn23)c1,"inconclusive: 18.4 µM [cytotoxic, single point]",–
CCC(C)N1C(=O)c2ccccc2C1C(=O)NC1CCCCCC1 (configuration not stated),active: 18.4 µM,–
CC(=O)n1cc(/C=N/NC(N)=S)c2ccccc21,active: 5.17 µM,–
CC(C)(C)OC(=O)N1CCN(Cc2ccc(F)c(B(O)O)c2)CC1,inactive,–
CC(=O)c1cccc2c1OC(C)C(=O)N2Cc1ccc(Cl)cc1 (configuration not stated),inactive,–
c1nnc(NCNc2nncs2)s1,inactive,–
Cc1cc(C(=O)N2CCN(C/C=C/c3ccccc3)CC2)cs1,active: 16.4 µM,–
Cc1cc(C(=O)C(C(c2ccccc2)N2CCOCC2)N2CCOCC2)ccc1Cl (configuration not stated),inactive,–
Cc1cc(O)ccc1-c1ccc2nncn2c1,inactive,–
COc1ccc(CN2C(=O)c3cccnc3C2=O)cc1S(=O)(=O)NC1CCCCC1,inactive,–
Cc1cc(=O)n2nc(N3CCC(C(=O)NCC(C)c4ccccc4)CC3)sc2n1 (configuration not stated),"inconclusive: 23.1 µM [rising, single point]",–
CCN(CC)S(=O)(=O)c1ccc(Cl)c(C(=O)Nc2nncs2)c1,inactive,–
COc1ccc(S(=O)(=O)CCC(=O)NCCc2ccc(Cl)cc2)cc1,"inconclusive: 20.6 µM [cytotoxic, single point]",–
CCOC(=O)Cc1csc(NC(=O)Cn2cnc3c2c(=O)n(C)c(=O)n3C)n1,inactive,–
CCCCNC(=O)c1nc(C2CCN(S(=O)(=O)c3ccc(C(F)(F)F)cc3)CC2)oc1-c1ccccc1,"inconclusive: 16.4 µM [cytotoxic, partial curve]",–
CCc1nc(NCCC(C)C)c(C#N)c2c1CCCC2,inactive,–
NC1=C(Cl)C(=O)c2ccc(S(N)(=O)=O)cc2C1=O,"inconclusive: 2.06 µM [cytotoxic, partial curve, poor fit]",–
COC(=O)c1ccc(CN2CCC(Oc3ccc(C(=O)N4CCCCC4)cc3)CC2)cc1,"inconclusive: 8.2 µM [cytotoxic, partial curve]",–

# Arranged by molecular weight (rising): 4 of the compounds above
SMILES,Potency,"activity change, negative = cytotoxicity"
O=C(CCCn1cnc([N+](=O)[O-])n1)Nc1ccc(Cl)cc1Cl,"inconclusive: 23.1 µM [cytotoxic, single point]",–
CCCc1nc2sc3ccccc3c(=O)c2c(=O)n1Cc1ccco1,"inconclusive: 5.8 µM [cytotoxic, partial curve, poor fit]",–
COc1ccc(C(=O)N2CCCC(Nc3ccc(C)c(C)c3)C2)cc1F (configuration not stated),"inconclusive: 29.1 µM [cytotoxic, partial curve, poor fit]",–
Cc1cccc(-n2c(=O)c3c(c4cc(C)ccc4n3C)n(CC(=O)N3CCCC3)c2=O)c1,–,inconclusive: -1.82%

# Later entries:

SMILES,Potency,"activity change, negative = cytotoxicity"
Cc1ccc(CNC(=O)c2ccc(NC(=O)N3CCSc4ncccc43)cc2)cc1,inactive,–
O=C(Sc1ccccc1)c1cccc(Cn2cc(C(F)(F)F)ccc2=O)c1,"inconclusive: 29.1 µM [rising, single point]",–
O=C(NC1CC2CCC(C1)N2Cc1nnnn1Cc1ccco1)NC12CC3CC(CC(C3)C1)C2 (configuration not stated),inactive,–
Cc1c(C(=O)Nc2cccc(Cl)c2)sc2nc3n(c(=O)c12)N=C(c1cccc(Br)c1)CS3,inactive,–
CCCc1nc2oc3c(NCC(C)O)ncnc3c2c2c1CCCC2 (configuration not stated),"inconclusive: 6.51 µM [cytotoxic, partial curve]",–
C/C(=N\OC(=O)c1ccc(F)cc1)c1sc(-c2ccccc2)nc1C,"inconclusive: 7.31 µM [cytotoxic, partial curve]",–
CCSc1nnc(NC(=O)C2CCCN(C(=O)c3ccc(Cl)cc3)C2)s1 (configuration not stated),"inconclusive: 20.6 µM [cytotoxic, single point]",–
Cn1c(=O)c2[nH]c(Cc3cccc4ccccc34)nc2n(C)c1=O,"inconclusive: 18.4 µM [cytotoxic, single point]",–
COc1ccccc1CCN=C(N)NS(=O)(=O)c1ccc(F)cc1,"inconclusive: 29.1 µM [cytotoxic, single point]",–
O=C(Nc1ccc([N+](=O)[O-])cc1)Nc1ccc2c(c1)OCCO2,"inconclusive: 16.4 µM [cytotoxic, single point]",–
CCOc1ccccc1NC(=O)c1nc(SC(C)C)ncc1Cl,inactive,–
COc1ccc(NC(=O)c2ccc(C)cc2Cl)c([N+](=O)[O-])c1,"inconclusive: 13 µM [cytotoxic, partial curve]",–
Cc1cccc(C)c1OCCCn1c(CCNC(=O)C2CCCCC2)nc2ccccc21,"inconclusive: 23.1 µM [cytotoxic, single point]",–
CC(=O)n1nc(-c2ccc(Cl)cc2)nc1NCc1ccco1,"inconclusive: 20.6 µM [cytotoxic, single point]",–
CCN(CC)C(=S)SC1CCCCN(C(=O)c2ccc(F)cc2)C1=O (configuration not stated),"inconclusive: 25.9 µM [cytotoxic, single point]",–
CCN(CC)S(=O)(=O)c1ccc(C(=O)NNc2nc(-c3ccccc3)c3cc(Br)ccc3n2)cc1,"inconclusive: 8.2 µM [cytotoxic, partial curve, poor fit]",–
CCn1cc(/C=C(\NC(=O)c2cc(OC)c(OC)c(OC)c2)C(=O)NCCCN2CCOCC2)c2ccccc21,"inconclusive: 0.13 µM [rising, full curve]",–
Cc1ccc(C(=O)NC(NCC2CCCO2)C(Cl)(Cl)Cl)cc1 (configuration not stated),"inconclusive: 29.1 µM [cytotoxic, single point]",–
Cc1ccccc1-c1nc2cc(N)ccc2o1,"inconclusive: 9.2 µM [cytotoxic, partial curve, poor fit]",–
CCCC(=O)Nc1nc(C)c(-c2csc(Nc3ccccc3OC)n2)s1,inactive,–
O=C(CSc1nnc(-c2ccccc2)n1-c1ccccc1)NCc1ccco1,"inconclusive: 14.6 µM [cytotoxic, partial curve]",–
O=[N+]([O-])c1ccc(COc2ccc(CNc3ccccc3)cc2)cc1,"inconclusive: 18.4 µM [cytotoxic, single point]",–
COc1cc(NC(=O)CCS(=O)(=O)c2ccc3c(c2)CC(=O)N3C)cc(OC)c1OC,inactive,–
Cc1ccc([C@H]2C(C(=O)O)=CCN2S(=O)(=O)c2ccc(C)cc2)cc1,inactive,–

SMILES,Potency,"activity change, negative = cytotoxicity"
CC1=NN(CCc2ccccn2)C(=O)CC1,"inconclusive: 23.1 µM [rising, partial curve]",–
COc1ccc(C(=O)N(CCc2ccccc2)Cc2ccccc2)cc1S(=O)(=O)N1CCOCC1,inactive,–
CC(C)(C)n1nnnc1C(c1ccccn1)N1CCN(C(c2ccccc2)c2ccccc2)CC1 (configuration not stated),"inconclusive: 20.6 µM [rising, single point]",–
Cc1ccc(C)c(NC(=S)NNC(=O)c2csc(C)c2)c1,active: 18.4 µM,–
Nc1ccc2ccc(O)cc2c1,inactive,–
Cc1cc(C(C)(C)C)oc1C(=O)OCC(=O)NC1CCCCC1,–,inconclusive: -33.3% [cytotoxic]
COc1ccc(C2(CNC(=O)c3ccc(Br)o3)CCOCC2)cc1,inactive,–
COc1ccc(N2CCN(CCCNC(=O)c3cc(Nc4ccc(OC)cc4OC)nc4ccccc34)CC2)cc1,"inconclusive: 20.6 µM [cytotoxic, single point]",–
O=[N+]([O-])c1cccnc1N1CCC(c2cc(-c3ccc(Cl)cc3)n[nH]2)CC1,"inconclusive: 16.4 µM [cytotoxic, single point]",–
Cc1ccc(Cn2cc(CN3CC(N4CCN(CCN(C)C)CC4)CS3(=O)=O)nn2)cc1 (configuration not stated),inactive,–
Cc1ccc2[nH]c(=O)c(CN(C)C(=O)c3cccs3)cc2c1,"inconclusive: 16.4 µM [cytotoxic, single point]",–
COc1ccc2[nH]c3c(C)c4ccncc4c(C)c3c2c1,active: 8.2 µM,–
CCCN1Cc2cccc(C(=O)Nc3ccc(C(C)=O)cc3)c2C1=O,"inconclusive: 29.1 µM [cytotoxic, single point]",–
O=C(Cc1ccc(Cl)cc1)Nc1nc2ccccc2[nH]1,inactive,–
CCC1CCCCN1C(=O)CSc1nnc(N)s1 (configuration not stated),"inconclusive: 29.1 µM [rising, single point]",–
CCC(=O)N1CCCc2cc(S(=O)(=O)N3CCC(C(=O)NC4CCCCC4)CC3)ccc21,"inconclusive: 29.1 µM [cytotoxic, single point]",–
O=C(c1ccc2c(c1)N(Cc1ccc(F)cc1)C(=O)c1ccccc1S2(=O)=O)N1CCCC1,inactive,–
C=CCN1C(=O)c2ccc(C(=O)N3CCN(S(=O)(=O)c4cccc([N+](=O)[O-])c4)CC3)cc2C1=O,inactive,–
CCOc1cccc(CNCc2cccnc2)c1OCc1ccccc1,"inconclusive: 16.4 µM [cytotoxic, single point]",–
O=c1c2ccccc2sn1-c1cc(S(=O)(=O)N2CCOCC2)ccc1N1CCOCC1,"inconclusive: 8.2 µM [cytotoxic, partial curve]",–
COc1cc(C2c3cc4c(cc3OC(N3CCCCC3)C2C)OCO4)cc(OC)c1O (configuration not stated),"inconclusive: 20.6 µM [cytotoxic, single point]",–
CCOCCCNC(=O)C(NC(=O)c1ccccc1O)c1ccc(C)cc1 (configuration not stated),"inconclusive: 13 µM [cytotoxic, single point]",–
COc1ccc(C(=O)NC(=S)NNC(=O)c2ccc(NC(=O)C(C)C)cc2)cc1,active: 2.59 µM,–
Cc1ccc(S(=O)(=O)Nc2ccc3c(c2)ncn3C(C)(C)C)cc1,"inconclusive: 20.6 µM [cytotoxic, partial curve]",–
